Source: patent US7851445B2, “Angiogenic heparin-binding epitopes, peptide amphiphiles, self-assembled compositions and related methods of use” (Northwestern University, priority 2005, dated 2010)
Where a SMILES comes first, the peptide text is derived from it. The star is where a group is joined. Palmitoyl = CCCCCCCCCCCCCCCC(=O)*

Test: Isothermal titration calorimetry of heparin into HBPA solution
Type: binding
Conditions: ITC, Table 3G
From the text: Isothermal titration calorimetry was used to titrate increments of heparin independently into both the HBPAs and measured the heat released upon binding as a function of the molar ratio. The data obtained was integrated and fitted to a nonlinear function as previously described (Fromm, J. R., et al, “Differences in the Interaction of Heparin with Arginine and Lysine and the Importance of These Basic-Amino-Acids in the Binding of Heparin to Acidic Fibroblast Growth-Factor” Arch. Biochem. Biophys. 323 (1997) 279) to obtain an association constant of 10^7 in both cases (see FIGS. 3E and 3F). Despite similarity in their binding constants, the binding interaction of HBPA-1 and HBPA-2 were energetically very different. […] Such results can be explained with reference to their respective structures. HBPA-1 has hydrophobic residues on the periphery of its peptide chain and the increase in entropy is possibly due to displacement of solvent water molecules from these residues upon heparin interaction.
Characterization of the self-assembly. […] The images were analyzed using the Leica LCS imaging software. […] A frequency sweep experiment was performed at 3% strain with a ten-minute wait time (both determined by independently performing an amplitude sweep and a time strain experiment) to obtain 17 data points between angular frequencies of 0.1 to 10 rad/s. […]

| Compound | thermodynamic driving force of heparin interaction |
| --- | --- |
| CCCCCCCCCCCCCCCC(=O)N[C@@H](C)C(=O)N[C@@H](C)C(=O)N[C@@H](C)C(=O)N[C@@H](C)C(=O)NCC(=O)NCC(=O)NCC(=O)N[C@@H](CC(C)C)C(=O)N[C@@H](CCCNC(=N)N)C(=O)N[C@@H](CCCCN)C(=O)N[C@@H](CCCCN)C(=O)N[C@@H](CC(C)C)C(=O)NCC(=O)N[C@@H](CCCCN)C(=O)N[C@@H](C)C(N)=O [HBPA-1] (Palmitoyl-AAAAGGGLRKKLGKA-NH2) | predominantly driven by entropic changes |
| CCCCCCCCCCCCCCCC(=O)N[C@@H](C)C(=O)N[C@@H](C)C(=O)N[C@@H](C)C(=O)N[C@@H](C)C(=O)NCC(=O)NCC(=O)NCC(=O)N[C@@H](CC(C)C)C(=O)N[C@@H](CC(C)C)C(=O)NCC(=O)N[C@@H](C)C(=O)N[C@@H](CCCNC(=N)N)C(=O)N[C@@H](CCCCN)C(=O)N[C@@H](CCCCN)C(=O)N[C@@H](CCCCN)C(N)=O [HBPA-2] (Palmitoyl-AAAAGGGLLGARKKK-NH2) | predominantly enthalpic |
